# PubChem BioAssay AID2283364 (EPA ToxCast)
# Sequences of proteins named here, by UniProt entry; tags and fusion partners are left off.
# UniProt P62942, whole entry, looked up: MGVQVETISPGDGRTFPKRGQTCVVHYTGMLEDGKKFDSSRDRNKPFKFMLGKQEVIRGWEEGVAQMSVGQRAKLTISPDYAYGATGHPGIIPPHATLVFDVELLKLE
# Inconclusive results, whose numbers are uncertain, are shown with a selection of clear calls. Where the call is inconclusive, the potency comes from a doubtful curve fit. Activity calls are given as the source filed them. How the source made its calls: active means hit-call score of the fitted dose curve at least 0.9, where 1 is the maximum; inconclusive means response in the unintended direction; inactive means score below 0.9.
# Target: human FK-506 Binding Protein (FKBP12), FKBP1A (gene 2280) (UniProt P62942)
# Assay: NVS_OR_hFKBP12: NovaScreen (NVS) Nuclear Receptor Binding Assay for human FK-506 Binding Protein (FKBP12)
# Description: NVS_OR_hFKBP12 is a biochemical, single-readout assay that uses extracted gene-proteins from E. coli in a cell-free assay. Measurements were taken 0.75 hour after chemical dosing in a 48-well plate.NVS_OR_hFKBP12 is one of one assay component(s) measured or calculated from the NVS_OR_hFKBP12 assay. It is designed to make measurements of radioligand binding, a form of binding reporter, as detected with scintillation counting signals by Filter-based radiodetection technology.Data from the assay component NVS_OR_hFKBP12 was analyzed into 1 assay endpoint. This assay endpoint, NVS_OR_hFKBP12, was analyzed in the positive analysis fitting direction relative to DMSO as the negative control and baseline of activity. Using a type of binding reporter, loss-of-signal activity can be used to understand changes in the binding as they relate to the gene FKBP1A. Furthermore, this assay endpoint can be referred to as a primary readout, because the performed assay has only produced 1 assay endpoint. To generalize the intended target to other relatable targets, this assay endpoint is annotated to the misc protein intended target family, where the subfamily is chaperone.
# Binding assays used specific radioligands (tritiated, iodinated) with non-radioactive competitive displacement ligands in agonist or antagonist protocols (as indicated) and various reference compounds and inhibitors to titrate specific binding to receptors and transporters. Most enzyme assays (CYPs, kinases, phosphatases, proteases, HDACs) used recombinant protein and specific substrates (fluorescence mostly, some colorimetric and radioactive) and inhibitors, followed by a biochemical separation of substrate and product. All assays for the biochemical HTS were initially run in duplicate at a single concentration (10 uM for CYP450 assays and 25 uM for all others). Assay-chemical combinations meeting a pre-defined threshold (e.g., 30% inhibition and other criteria defined below) were then run in singleton concentration-response format with maximum concentration of 20 uM for CYPs and 50 uM for all others. Each assay was run with positive and negative controls, and concurrent controls on every plate. The follow-up (secondary) screen tested active chemical-pairs in concentration series, as well as a few additional assays not tested in the primary screen, some selected negative inactives, and several cases re-run in the concentration series for confirmatory purposes.
SMILES,outcome,AC50
COC(=O)C=C(C)OP(=O)(OC)OC,inactive,–
Cc1ccn2nc(S(=O)(=O)Nc3c(F)cccc3F)nc2n1,inactive,–
CCC(C)(CC)c1cc(NC(=O)c2c(OC)cccc2OC)on1,–,inconclusive: 25 µM
CCOP(=S)(Oc1cnc(C(C)(C)C)nc1)OC(C)C (stereo unspecified),–,inconclusive: 25 µM
Oc1ccccc1Cl,–,inconclusive: 41.7 µM
CO/N=C(/C1=NOCCO1)c1ccccc1Oc1ncnc(Oc2ccccc2Cl)c1F,inactive,–
Nc1ccc([N+](=O)[O-])cc1,–,inconclusive: 4.96 µM
CCCC1COC(Cn2cncn2)(c2ccc(Cl)cc2Cl)O1 (stereo unspecified),–,inconclusive: 0.0598 µM
CNC(=O)Oc1cccc2c1OC(C)(C)C2,–,inconclusive: 0.184 µM
c1ccc(-c2ccccc2)cc1,inactive,–
Cc1cc(C)nc(NC(=O)NS(=O)(=O)c2ccccc2C(=O)OC2COC2)n1,inactive,–

# Single values from the list.
# outcome, Cc1cc(C)nc(NC(=O)NS(=O)(=O)c2ccccc2C(=O)OC2COC2)n1 is entered as inactive
# AC50, CCOP(=S)(Oc1cnc(C(C)(C)C)nc1)OC(C)C (stereo unspecified) is entered as inconclusive: 25 µM
